Data as given in PubChem BioAssay AID1224830 (NIAID, 2016).

Assay: 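Genes whose knock-down alters the TNF-alpha reporter response to LPS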 (primary screen)
System: human THP-1 monocytic leukaemia cells, TNF dual-luciferase reporter clone, PMA-differentiated to macrophage-like cells
Reagents: siRNA pool against human genes, 50 nM
Timing: LPS for 4 h, given about 3 days after siRNA transfection
Treatment: bacterial LPS (TLR4 ligand), 10 ng/ml
Measured: 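Ratio of firefly to renilla light, scaled to the plate median and expressed as a robust z-score per replicate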
Direction: TNF reporter robust z-score: higher = stronger TNF reporter response to LPS
Hit rule: 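a well is active when its z-score exceeds 2.8 or falls below -1.5; control wells carry no call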
The deposit covers about 18,000 reagents; below is a part drawn at random. About 2,900 of them (16%) were called active. 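Calls are made per well; low scores hint the gene aids the LPS response, high scores that it dampens it.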 Unmarked entries are inactive. Repeated entries: four replicate wells of each siRNA pool. No sequences are given here.

gene symbol,TNF reporter robust z-score
C1orf21 (chromosome 1 open reading frame 21),-0.35
C1orf21 (chromosome 1 open reading frame 21),0.37
C1orf21 (chromosome 1 open reading frame 21),0.02
C1orf21 (chromosome 1 open reading frame 21),0.12
MTA2 (metastasis associated 1 family member 2),-1.61 (active)
MTA2 (metastasis associated 1 family member 2),-2.01 (active)
MTA2 (metastasis associated 1 family member 2),-1.7 (active)
MTA2 (metastasis associated 1 family member 2),-1.2
CHMP3 (charged multivesicular body protein 3),-1.03
CHMP3 (charged multivesicular body protein 3),-0.57
CHMP3 (charged multivesicular body protein 3),-0.74
CHMP3 (charged multivesicular body protein 3),-0.73
DPP7 (dipeptidyl peptidase 7),1.8
DPP7 (dipeptidyl peptidase 7),1.46
DPP7 (dipeptidyl peptidase 7),0.72
DPP7 (dipeptidyl peptidase 7),1.75
FAM78A (family with sequence similarity 78 member A),0.19
FAM78A (family with sequence similarity 78 member A),2.84 (active)
FAM78A (family with sequence similarity 78 member A),0.31
FAM78A (family with sequence similarity 78 member A),0.53
DDX11 (DEAD/H-box helicase 11),0.4
DDX11 (DEAD/H-box helicase 11),-0.45
DDX11 (DEAD/H-box helicase 11),0.5
DDX11 (DEAD/H-box helicase 11),0.89
OAZ2 (ornithine decarboxylase antizyme 2),-0.61
OAZ2 (ornithine decarboxylase antizyme 2),-1.18
OAZ2 (ornithine decarboxylase antizyme 2),0.39
OAZ2 (ornithine decarboxylase antizyme 2),0.64
COL10A1 (collagen type X alpha 1 chain),-0.55
COL10A1 (collagen type X alpha 1 chain),-1.25
COL10A1 (collagen type X alpha 1 chain),-0.69
COL10A1 (collagen type X alpha 1 chain),0.48
RRAS (RAS related),0.38
RRAS (RAS related),0.95
RRAS (RAS related),-0.12
RRAS (RAS related),-0.05
USP8 (ubiquitin specific peptidase 8),-0.53
USP8 (ubiquitin specific peptidase 8),2.02
USP8 (ubiquitin specific peptidase 8),-0.05
USP8 (ubiquitin specific peptidase 8),0.79
SHLD2 (shieldin complex subunit 2),-0.07
SHLD2 (shieldin complex subunit 2),-0.22
SHLD2 (shieldin complex subunit 2),-0.56
SHLD2 (shieldin complex subunit 2),-0.23
RASGRP2 (RAS guanyl releasing protein 2),1.03
RASGRP2 (RAS guanyl releasing protein 2),1.34
RASGRP2 (RAS guanyl releasing protein 2),1.71
RASGRP2 (RAS guanyl releasing protein 2),2.95 (active)
MCM5 (minichromosome maintenance complex component 5),-0.6
MCM5 (minichromosome maintenance complex component 5),-0.53
MCM5 (minichromosome maintenance complex component 5),-0.47
MCM5 (minichromosome maintenance complex component 5),0.48
STON2 (stonin 2),0.5
STON2 (stonin 2),-0.04
STON2 (stonin 2),0.11
STON2 (stonin 2),0.47
COL4A5 (collagen type IV alpha 5 chain),-1.41
COL4A5 (collagen type IV alpha 5 chain),-0.75
COL4A5 (collagen type IV alpha 5 chain),0.86
COL4A5 (collagen type IV alpha 5 chain),1.44
"GAPDHS (glyceraldehyde-3-phosphate dehydrogenase, spermatogenic)",0.06
"GAPDHS (glyceraldehyde-3-phosphate dehydrogenase, spermatogenic)",-0.16
"GAPDHS (glyceraldehyde-3-phosphate dehydrogenase, spermatogenic)",-0.15
"GAPDHS (glyceraldehyde-3-phosphate dehydrogenase, spermatogenic)",0.23
FRMD7 (FERM domain containing 7),-0.01
FRMD7 (FERM domain containing 7),-0.05
FRMD7 (FERM domain containing 7),-0.55
THAP5 (THAP domain containing 5),0.41
THAP5 (THAP domain containing 5),-0.19
THAP5 (THAP domain containing 5),-0.57
TRMO (tRNA methyltransferase O),-1.63 (active)
TRMO (tRNA methyltransferase O),-0.03
TRMO (tRNA methyltransferase O),-0.57
TRMO (tRNA methyltransferase O),-0.13
TMIGD2 (transmembrane and immunoglobulin domain containing 2),-0.46
TMIGD2 (transmembrane and immunoglobulin domain containing 2),-0.52
TMIGD2 (transmembrane and immunoglobulin domain containing 2),-0.66
TMIGD2 (transmembrane and immunoglobulin domain containing 2),-0.64

Records listed above marked active, once more:
gene symbol,TNF reporter robust z-score
MTA2 (metastasis associated 1 family member 2),-1.61 (active)
MTA2 (metastasis associated 1 family member 2),-2.01 (active)
MTA2 (metastasis associated 1 family member 2),-1.7 (active)
FAM78A (family with sequence similarity 78 member A),2.84 (active)
RASGRP2 (RAS guanyl releasing protein 2),2.95 (active)
TRMO (tRNA methyltransferase O),-1.63 (active)
